Earlier results as cited in patent US4919937A, “Percutaneous administration of tamoxifen” (priority 1984, dated 1990).
The name of at least one read-out is uncertain.

Conditions: oral; cited from earlier work

CC(=O)[C@H]1CC[C@H]2[C@@H]3CCC4=CC(=O)CC[C@]4(C)[C@H]3CC[C@]12C [progesterone]
dose destroyed in the first passage through the liver: 90%
